Laboratory results: PubChem BioAssay AID1508597 (Cure First, 2020)
This is a random part of the about 2,100 reagents, in one setting of the screen. 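Calls flag viability under 80% in either arm, not effects specific to rucaparib; the reference for percent is not stated.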 Unmarked entries are inactive. A reagent listed more than once was tested more than once; the source does not tell the runs apart. The record does not give: the 100% reference.

- Purpose: 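Survival screen with siRNA in ovarian cancer cells derived from patients, with or without rucaparib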 (primary screen)
- Cell system: human ovarian carcinoma lines grown from tumours: OCI-P5x (papillary serous) and OCI-C5x (clear cell)
- Reagent: siRNA pool against human genes, 1.25 pmol siRNA per well
- Timing: 72 h or 96 h, depending on the cell culture
- Treatment: rucaparib 20 µM (about IC30) or vehicle, present until read-out
- Rucaparib or vehicle: Vehicle
- Cell line: OCI-C5x (clear cell)
- Measurement: 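Luminescent ATP-based viability assay read 72 or 96 h after transfection, depending on culture, given as normalised percent viability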
- Scale: viability, normalised: higher = more viable cells remaining
- Rule for the call: 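a well counts as a hit if its normalised viability is under 80 percent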
- Calls: active = viability under 80%; inactive = viability 80% or more

{"gene": "PRKCA (protein kinase C alpha)", "technical replicate": "1", "viability, normalised (%)": "35.7 (active)"}
{"gene": "PRKCA (protein kinase C alpha)", "technical replicate": "1", "viability, normalised (%)": 113}
{"gene": "PRKCA (protein kinase C alpha)", "technical replicate": "2", "viability, normalised (%)": 97.1}
{"gene": "PRKCA (protein kinase C alpha)", "technical replicate": "2", "viability, normalised (%)": "28.4 (active)"}
{"gene": "PRKCA (protein kinase C alpha)", "technical replicate": "3", "viability, normalised (%)": 109}
{"gene": "PRKCA (protein kinase C alpha)", "technical replicate": "3", "viability, normalised (%)": "43.8 (active)"}
{"gene": "NCOR2 (nuclear receptor corepressor 2)", "technical replicate": "1", "viability, normalised (%)": "34.8 (active)"}
{"gene": "NCOR2 (nuclear receptor corepressor 2)", "technical replicate": "2", "viability, normalised (%)": "30.5 (active)"}
{"gene": "NCOR2 (nuclear receptor corepressor 2)", "technical replicate": "3", "viability, normalised (%)": "35.2 (active)"}
{"gene": "GNAT1 (G protein subunit alpha transducin 1)", "technical replicate": "1", "viability, normalised (%)": "37 (active)"}
{"gene": "GNAT1 (G protein subunit alpha transducin 1)", "technical replicate": "2", "viability, normalised (%)": "50.6 (active)"}
{"gene": "GNAT1 (G protein subunit alpha transducin 1)", "technical replicate": "3", "viability, normalised (%)": "42.4 (active)"}

As entered above:
Under “viability, normalised (%)”, NCOR2 (nuclear receptor corepressor 2), technical replicate 1 reads 34.8 (active)
GNAT1 (G protein subunit alpha transducin 1), technical replicate 3, viability, normalised (%) → 42.4 (active)

Next reagents follow:
{"gene": "WEE2 (WEE2 oocyte meiosis inhibiting kinase)", "technical replicate": "1", "viability, normalised (%)": "59 (active)"}
{"gene": "WEE2 (WEE2 oocyte meiosis inhibiting kinase)", "technical replicate": "1", "viability, normalised (%)": "57.4 (active)"}
{"gene": "WEE2 (WEE2 oocyte meiosis inhibiting kinase)", "technical replicate": "2", "viability, normalised (%)": "50.3 (active)"}
{"gene": "WEE2 (WEE2 oocyte meiosis inhibiting kinase)", "technical replicate": "2", "viability, normalised (%)": "63.7 (active)"}
{"gene": "WEE2 (WEE2 oocyte meiosis inhibiting kinase)", "technical replicate": "3", "viability, normalised (%)": "74.6 (active)"}
{"gene": "WEE2 (WEE2 oocyte meiosis inhibiting kinase)", "technical replicate": "3", "viability, normalised (%)": "40.2 (active)"}
{"gene": "DMTF1 (cyclin D binding myb like transcription factor 1)", "technical replicate": "1", "viability, normalised (%)": "46.2 (active)"}
{"gene": "DMTF1 (cyclin D binding myb like transcription factor 1)", "technical replicate": "2", "viability, normalised (%)": "38.2 (active)"}
{"gene": "DMTF1 (cyclin D binding myb like transcription factor 1)", "technical replicate": "3", "viability, normalised (%)": "32.7 (active)"}
{"gene": "DCLRE1A (DNA cross-link repair 1A)", "technical replicate": "1", "viability, normalised (%)": 120}
{"gene": "DCLRE1A (DNA cross-link repair 1A)", "technical replicate": "2", "viability, normalised (%)": "59.3 (active)"}
{"gene": "DCLRE1A (DNA cross-link repair 1A)", "technical replicate": "3", "viability, normalised (%)": "74.6 (active)"}
{"gene": "MBD5 (methyl-CpG binding domain protein 5)", "technical replicate": "1", "viability, normalised (%)": "52 (active)"}
{"gene": "MBD5 (methyl-CpG binding domain protein 5)", "technical replicate": "2", "viability, normalised (%)": "55.5 (active)"}
{"gene": "MBD5 (methyl-CpG binding domain protein 5)", "technical replicate": "3", "viability, normalised (%)": "64.8 (active)"}
{"gene": "MSH3 (mutS homolog 3)", "technical replicate": "1", "viability, normalised (%)": "63 (active)"}
{"gene": "MSH3 (mutS homolog 3)", "technical replicate": "2", "viability, normalised (%)": "62.3 (active)"}
{"gene": "MSH3 (mutS homolog 3)", "technical replicate": "3", "viability, normalised (%)": "73.5 (active)"}
{"gene": "CHUK", "technical replicate": "1", "viability, normalised (%)": "56 (active)"}
{"gene": "CHUK", "technical replicate": "2", "viability, normalised (%)": "74.7 (active)"}
{"gene": "CHUK", "technical replicate": "3", "viability, normalised (%)": "59.2 (active)"}
